These are yes or no findings as the source states them, for the method shown. For some assays here: In cells and extracts the contact can be indirect. Some results given as binding are weak or reduced against the parent protein; the word gives no strength. For some assays here: Where a sequence is shown, tags or fusion partners need not be part of it.

From paper doi:10.1101/310003 come the findings set out here.

Assay [1] deals with T1, SS4 fused to a moiety of YFP (BiFC construct) (Arabidopsis thaliana) (UniProt Q0WVX5).
T1 sequence: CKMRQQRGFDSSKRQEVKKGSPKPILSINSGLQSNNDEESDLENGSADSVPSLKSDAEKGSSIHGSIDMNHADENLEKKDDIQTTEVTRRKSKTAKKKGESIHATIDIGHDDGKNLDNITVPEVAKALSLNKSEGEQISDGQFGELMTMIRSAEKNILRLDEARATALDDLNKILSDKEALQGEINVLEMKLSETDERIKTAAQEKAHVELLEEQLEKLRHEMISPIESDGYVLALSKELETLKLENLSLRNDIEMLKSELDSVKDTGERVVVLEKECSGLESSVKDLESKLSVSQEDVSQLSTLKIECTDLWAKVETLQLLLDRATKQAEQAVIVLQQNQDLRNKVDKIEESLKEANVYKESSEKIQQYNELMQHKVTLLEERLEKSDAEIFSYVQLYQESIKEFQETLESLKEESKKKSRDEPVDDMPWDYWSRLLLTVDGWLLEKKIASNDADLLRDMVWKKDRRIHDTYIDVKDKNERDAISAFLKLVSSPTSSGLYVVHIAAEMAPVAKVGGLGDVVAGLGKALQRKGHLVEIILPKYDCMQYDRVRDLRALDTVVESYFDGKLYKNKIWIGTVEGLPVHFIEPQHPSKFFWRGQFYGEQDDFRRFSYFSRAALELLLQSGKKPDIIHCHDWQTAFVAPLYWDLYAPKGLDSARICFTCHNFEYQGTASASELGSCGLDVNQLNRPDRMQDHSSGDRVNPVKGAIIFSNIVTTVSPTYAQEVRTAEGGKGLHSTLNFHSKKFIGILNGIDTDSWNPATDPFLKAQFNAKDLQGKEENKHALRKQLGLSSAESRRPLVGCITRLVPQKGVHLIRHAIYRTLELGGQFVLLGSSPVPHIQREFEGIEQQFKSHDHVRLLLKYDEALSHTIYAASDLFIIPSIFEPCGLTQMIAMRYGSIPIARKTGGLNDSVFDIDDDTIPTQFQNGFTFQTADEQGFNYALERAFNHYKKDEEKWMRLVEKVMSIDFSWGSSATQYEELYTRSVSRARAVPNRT
The assay can be described thus: split reporter.

Assay [2] addresses soluble starch synthase 4 (SS4), amino acids 43 to 1040, yeast two-hybrid bait (Arabidopsis thaliana) (UniProt Q0WVX5). Description: two-hybrid.

B1: PII1 fused to a moiety of YFP (BiFC construct) (protein, UniProt Q8H1E5 28-783)
chain: VNHKQKSLVAFPSITRRKRHLLLSVQSVLHNTRPNINDNGSAESANVLFDKLFARTHRLERQTNQHSVYPDDDDLPYSNLGVLESDLEAALVALLKREEDLHDAERKLLSDKNKLNRAKEELEKREKTISEASLKHESLQEELKRANVELASQAREIEELKHKLRERDEERAALQSSLTLKEEELEKMRQEIANRSKEVSMAISEFESKSQLLSKANEVVKRQEGEIYALQRALEEKEEELEISKATKKLEQEKLRETEANLKKQTEEWLIAQDEVNKLKEETVKRLGEANETMEDFMKVKKLLTDVRFELISSREALVFSREQMEEKELLLEKQLEELEEQRKSVLSYMQSLRDAHTEVESERVKLRVVEAKNFALEREISVQKELLEDLREELQKEKPLLELAMHDISVIQDELYKKANAFQVSQNLLQEKESSLVEAKLEIQHLKSEQASLELLLQEKDEELAEARNKLGEVNQEVTELKALMISREDQLMEATEMLKEKDVHLHRIEGELGSSKLKVTEAEMVVERIAELTNRLLMSTTNGQNQNAMRINNEISIDSMQQPLEKPHDDYGMENKRLVMELSFTRENLRMKEMEVLAVQRALTFKDEEINVVMGRLEAKEQELKKLKEETINDSEDLKVLYALAQERVGEKTMGDLAIEMLQLEAANLEVEAATSALQKLAKMSTELLTQADMSIEADTTHTVMPERGYSEGSNECLGEVKTEVVRLWSLTEKLLENAGIVAGTSTCMEGVIL
In the case of B1, the binding entry in assay [1] is “binds”.

B2: soluble starch synthase 4 (SS4), amino acids 43 to 1040, yeast two-hybrid bait (domain or fragment, UniProt Q0WVX5 43-1040)
chain: T1 sequence
For the molecule B2, the binding result in assay [2] is “binds”.
